In patent publication US20190135934A1 (published 2019):
Changes are numbered by the printed parent chain. Results are given in words; binding and its absence hold for the method and conditions named. Some results given as binding are weak or reduced against the parent protein; the word gives no strength. Each block holds one binder with its values, some of them ahead of it.

Biological target: T1, CD20 protein on CD20 protein-positive lymphoma cell Raji (ATCC CCL-86) (UniProt P11836)
T1 sequence (looked up): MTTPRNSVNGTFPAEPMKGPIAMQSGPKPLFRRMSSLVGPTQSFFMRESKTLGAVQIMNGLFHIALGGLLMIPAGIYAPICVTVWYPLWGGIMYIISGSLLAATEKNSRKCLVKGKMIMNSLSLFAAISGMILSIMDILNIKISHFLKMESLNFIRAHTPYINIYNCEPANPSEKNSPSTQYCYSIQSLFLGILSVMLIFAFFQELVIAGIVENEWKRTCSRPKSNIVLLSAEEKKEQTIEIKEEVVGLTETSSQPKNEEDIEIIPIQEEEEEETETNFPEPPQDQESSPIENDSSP
Assay: flow cytometry, fluorescently labeled antibody on Raji cells

binding: binds
B1: novel CD20 antibody H102YW (antibody, human IgG1, V domains shown)
VH: QVQLQQPGAELVKPGASVKMSCKASGYTFTSYNMHWVKQTPGRGLEWIGAIYPGNGDTSYNQKFKGKATLTADKSSSTAYMQLSSLTSEDSAVYYCARSTYWGGDWYFNVWGAGTTVTVSA
VL: QIVLSQSPAILSASPGEKVTMTCRASSSVSYIHWFQQKPGSSPKPWIYATSNLASGVPVRFSGSGSGTSYSLTISRVEAEDAATYYCQQWTSNPPTFGGGTKLEIKV

binding: binds
B2: novel CD20 antibody H102YT (antibody, human IgG1, V domains shown)
VH: B1 VH with W102T
VL: B1 VL
